These results are taken from PMC4627082, “MCM ring hexamerization is a prerequisite for DNA-binding” (Nucleic Acids Research, 2015).

Assay [1] addresses PfMCMN-βT (1–256; K233A; R234A; K236A) (Pyrococcus furiosus) (UniProt Q8U3I4). Description: crystal structure; hanging drop vapor diffusion, stock protein 340 μM, ammonium sulfate conditions; molecular replacement with the PfMCMN-WT monomer; 3.20 Å; both purified.
Assay [2] concerns the target PfMCMN-ΔZFD (deletion of residues 131–181) (Pyrococcus furiosus) (UniProt Q8U3I4). Description: SEC; final size-exclusion chromatography step of purification; elution volume compared with PfMCMN-WT; both purified. (In general: SEC sorts molecules by how far they enter the pores of the column.)
Assay [3] has the same target. The assay can be described thus: AUC; sedimentation velocity, 20°C, 50 000 rpm, 20 mM HEPES pH 7.6, 200 mM NaCl, 5 mM β-mercaptoethanol, interference and absorbance optics, c(s) distributions; isotherm of signal-average s-values fitted to monomer-hexamer self-association; some WT samples with 40-mer oligo-dT ssDNA (T40); both purified.

These are yes or no findings as the source states them, for the method shown. Some binding calls cover weakened binding; strength is not graded here.

B1: PfMCMN-βT (1–256; K233A; R234A; K236A) (domain or fragment, Pyrococcus furiosus, UniProt Q8U3I4 1-256, looked up)
chain: MDREEMIERFANFLREYTDEDGNPVYRGKITDLLTITPKRSVAIDWMHLNSFDSELAHEVIENPEEGISAAEDAIQIVLREDFQREDVGKIHARFYNLPETLMVKDIGAEHINKLIQVEGIVTRVGEIKPFVSVAVFVCKDCGHEMIVPQKPYESLEKVKKCEQCGSKNIELDVNKSSFVNFQSFRIQDRPETLKGGEMPRFIDGILLDDIVDVALPGDRVIVTGILRVVLEAAEATPIFRKILEVNHIEPVSKEI
notes: Minichromosome Maintenance (MCM) protein of Pyrococcus furiosus, N-terminal domain, residues 1-256, with three alanine mutations of the β-turn; Made by site-directed mutagenesis of the PfMCMN-WT SUMO-fusion construct; SUMO removed by Ulp1; also called β-turn triple mutant; pCF076.1
Turning to B1, in assay [1], the binding entry is given as “binds”.

B2: PfMCMN-ΔZFD (deletion of residues 131–181) (domain or fragment, UniProt Q8U3I4)
chain: MDREEMIERFANFLREYTDEDGNPVYRGKITDLLTITPKRSVAIDWMHLNSFDSELAHEVIENPEEGISAAEDAIQIVLREDFQREDVGKIHARFYNLPETLMVKDIGAEHINKLIQVEGIVTRVGEIKPFQSFRIQDRPETLKGGEMPRFIDGILLDDIVDVALPGDRVIVTGILRVVLEKREKTPIFRKILEVNHIEPVSKEI
Regarding B2, the binding result in assay [2] is on record as “no binding”; in assay [3], “no binding (tested: 360 μM)”.
